Measurements taken from PMC11652653, “SON-1010: an albumin-binding IL-12 fusion protein that improves cytokine half-life, targets tumors, and enhances therapeutic efficacy” (Frontiers in Immunology, 2024).
Results are given in words; binding and its absence hold for the method and conditions named.

Chains of the proteins cited; added tags and fusions are not shown. Residues count along the entry.
UniProt P02768, residues 25-609: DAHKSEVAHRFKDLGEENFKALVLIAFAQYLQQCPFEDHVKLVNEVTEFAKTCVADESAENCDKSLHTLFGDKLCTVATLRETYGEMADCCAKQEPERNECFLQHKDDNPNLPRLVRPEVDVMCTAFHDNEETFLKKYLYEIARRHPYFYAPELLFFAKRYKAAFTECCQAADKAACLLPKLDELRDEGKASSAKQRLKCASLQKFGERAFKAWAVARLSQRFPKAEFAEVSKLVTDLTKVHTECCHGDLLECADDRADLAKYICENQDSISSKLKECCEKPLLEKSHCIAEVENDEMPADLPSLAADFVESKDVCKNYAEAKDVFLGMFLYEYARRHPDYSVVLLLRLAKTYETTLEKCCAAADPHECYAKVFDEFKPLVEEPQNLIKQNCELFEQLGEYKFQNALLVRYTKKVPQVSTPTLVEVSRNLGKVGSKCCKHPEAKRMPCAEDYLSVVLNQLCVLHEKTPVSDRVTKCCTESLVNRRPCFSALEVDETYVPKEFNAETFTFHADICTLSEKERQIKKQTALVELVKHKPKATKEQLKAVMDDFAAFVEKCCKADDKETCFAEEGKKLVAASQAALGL

Target: human serum albumin (human) (UniProt P02768)
Assay: SPR; HSA bound to the chip, SON-1010 added, then FcRn or SPARC together with SON-1010 (ternary complex); pH 7.2; both purified

B1: secreted protein acidic and rich in cysteine (natural protein, UniProt P09486 18-303, looked up)
chain: APQQEALPDETEVVEETVAEVTEVSVGANPVQVEVGEFDDGAEETEEEVVAENPCQNHHCKHGKVCELDENNTPMCVCQDPTSCPAPIGEFEKVCSNDNKTFDSSCHFFATKCTLEGTKKGHKLHLDYIGPCKYIPPCLDSELTEFPLRMRDWLKNVLVTLYERDEDNNLLTEKQKLRVKKIHENEKRLEAGDHPVELLARDFEKNYNMYIFPVHWQFGQLDQHPIDGYLSHTELAPLRAPLIPMEHCTTRFFETCDLDNDKYIALDEWAGCFGIKQKDIDKDLVI
notes: SPARC (secreted protein acidic and rich in cysteine); also called SPARC
For B1, the binding was “no binding (condition: at pH 7.2)”.
